Test results taken from the supplement of paper PMC11006884.
What follows is the remainder of the data, with few or none of the targets with a hit. This is a noisy data set. The entries are a selection whose mix differs from that of the whole data set.

By UniProt entry, the sequences of proteins in these tests, tags left out. Where a name states a change or a piece, a line headed by the entry shows the natural chain unless it says otherwise.
UniProt Q8IX01: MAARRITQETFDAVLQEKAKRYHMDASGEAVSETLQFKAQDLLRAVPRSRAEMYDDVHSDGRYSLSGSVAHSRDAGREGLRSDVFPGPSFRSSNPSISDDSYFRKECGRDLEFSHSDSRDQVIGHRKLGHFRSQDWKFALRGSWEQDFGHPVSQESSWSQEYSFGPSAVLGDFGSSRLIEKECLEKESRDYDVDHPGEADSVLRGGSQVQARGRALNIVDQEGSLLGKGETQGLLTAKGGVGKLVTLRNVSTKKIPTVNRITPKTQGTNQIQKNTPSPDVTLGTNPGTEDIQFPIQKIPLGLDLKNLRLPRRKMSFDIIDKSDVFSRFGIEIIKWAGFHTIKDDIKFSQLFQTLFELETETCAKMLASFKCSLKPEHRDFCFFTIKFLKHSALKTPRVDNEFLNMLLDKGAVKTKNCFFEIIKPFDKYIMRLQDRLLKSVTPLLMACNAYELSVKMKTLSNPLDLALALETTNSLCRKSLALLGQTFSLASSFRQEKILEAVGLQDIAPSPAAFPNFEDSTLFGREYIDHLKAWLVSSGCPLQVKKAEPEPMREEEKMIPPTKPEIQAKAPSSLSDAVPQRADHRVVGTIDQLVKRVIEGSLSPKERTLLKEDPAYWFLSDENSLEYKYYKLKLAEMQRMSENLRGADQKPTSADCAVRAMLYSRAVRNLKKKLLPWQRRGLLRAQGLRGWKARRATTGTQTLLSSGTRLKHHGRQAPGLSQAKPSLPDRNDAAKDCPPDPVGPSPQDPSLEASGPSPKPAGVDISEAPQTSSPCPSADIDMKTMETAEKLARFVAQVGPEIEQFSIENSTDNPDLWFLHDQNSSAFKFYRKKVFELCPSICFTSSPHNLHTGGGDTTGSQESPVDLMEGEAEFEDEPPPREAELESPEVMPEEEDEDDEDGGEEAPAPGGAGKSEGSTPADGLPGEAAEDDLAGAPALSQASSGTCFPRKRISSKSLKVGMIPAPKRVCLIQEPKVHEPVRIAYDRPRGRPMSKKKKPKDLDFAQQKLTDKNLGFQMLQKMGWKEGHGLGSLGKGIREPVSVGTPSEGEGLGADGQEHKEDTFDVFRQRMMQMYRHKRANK
UniProt Q86YR5: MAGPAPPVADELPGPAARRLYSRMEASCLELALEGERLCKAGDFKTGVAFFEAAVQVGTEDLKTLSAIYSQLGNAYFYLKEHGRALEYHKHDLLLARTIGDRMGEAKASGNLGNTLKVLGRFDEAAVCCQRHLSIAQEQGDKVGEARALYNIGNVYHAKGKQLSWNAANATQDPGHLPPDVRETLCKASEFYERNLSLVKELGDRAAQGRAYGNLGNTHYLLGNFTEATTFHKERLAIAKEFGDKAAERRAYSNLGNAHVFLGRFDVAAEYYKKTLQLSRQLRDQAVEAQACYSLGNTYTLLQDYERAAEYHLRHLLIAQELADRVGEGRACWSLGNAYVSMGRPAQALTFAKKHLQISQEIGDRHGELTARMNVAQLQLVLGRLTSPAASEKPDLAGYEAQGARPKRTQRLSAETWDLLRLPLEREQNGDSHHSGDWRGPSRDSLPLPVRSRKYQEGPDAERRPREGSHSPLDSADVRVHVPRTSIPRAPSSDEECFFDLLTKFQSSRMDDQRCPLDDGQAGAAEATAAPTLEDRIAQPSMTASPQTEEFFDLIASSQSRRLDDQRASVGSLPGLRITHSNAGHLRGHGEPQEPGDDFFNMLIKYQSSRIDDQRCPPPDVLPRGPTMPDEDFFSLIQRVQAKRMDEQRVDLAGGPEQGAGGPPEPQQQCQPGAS
UniProt Q8IZ81: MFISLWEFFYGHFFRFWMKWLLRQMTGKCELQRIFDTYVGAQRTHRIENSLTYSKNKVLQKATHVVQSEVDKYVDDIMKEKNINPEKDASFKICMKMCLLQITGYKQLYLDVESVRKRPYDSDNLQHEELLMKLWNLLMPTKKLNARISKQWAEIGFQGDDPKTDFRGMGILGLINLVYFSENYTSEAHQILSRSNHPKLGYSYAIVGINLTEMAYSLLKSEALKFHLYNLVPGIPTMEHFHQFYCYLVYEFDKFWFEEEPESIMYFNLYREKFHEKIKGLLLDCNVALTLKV
UniProt Q8IU81: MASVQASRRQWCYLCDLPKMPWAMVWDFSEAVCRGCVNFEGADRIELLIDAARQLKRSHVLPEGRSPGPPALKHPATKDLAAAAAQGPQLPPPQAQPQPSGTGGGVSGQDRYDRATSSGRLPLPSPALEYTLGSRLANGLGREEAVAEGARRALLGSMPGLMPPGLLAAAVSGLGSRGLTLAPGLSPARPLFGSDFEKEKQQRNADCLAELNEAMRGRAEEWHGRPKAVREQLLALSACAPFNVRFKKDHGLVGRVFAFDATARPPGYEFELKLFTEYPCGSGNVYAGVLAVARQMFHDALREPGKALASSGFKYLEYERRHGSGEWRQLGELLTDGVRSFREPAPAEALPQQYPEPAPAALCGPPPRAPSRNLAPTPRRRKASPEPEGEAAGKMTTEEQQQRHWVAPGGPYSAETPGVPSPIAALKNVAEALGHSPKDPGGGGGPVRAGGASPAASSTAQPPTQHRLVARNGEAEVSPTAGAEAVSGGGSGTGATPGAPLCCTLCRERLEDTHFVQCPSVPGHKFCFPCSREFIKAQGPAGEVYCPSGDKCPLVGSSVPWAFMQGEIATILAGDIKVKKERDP
UniProt Q7Z2W4: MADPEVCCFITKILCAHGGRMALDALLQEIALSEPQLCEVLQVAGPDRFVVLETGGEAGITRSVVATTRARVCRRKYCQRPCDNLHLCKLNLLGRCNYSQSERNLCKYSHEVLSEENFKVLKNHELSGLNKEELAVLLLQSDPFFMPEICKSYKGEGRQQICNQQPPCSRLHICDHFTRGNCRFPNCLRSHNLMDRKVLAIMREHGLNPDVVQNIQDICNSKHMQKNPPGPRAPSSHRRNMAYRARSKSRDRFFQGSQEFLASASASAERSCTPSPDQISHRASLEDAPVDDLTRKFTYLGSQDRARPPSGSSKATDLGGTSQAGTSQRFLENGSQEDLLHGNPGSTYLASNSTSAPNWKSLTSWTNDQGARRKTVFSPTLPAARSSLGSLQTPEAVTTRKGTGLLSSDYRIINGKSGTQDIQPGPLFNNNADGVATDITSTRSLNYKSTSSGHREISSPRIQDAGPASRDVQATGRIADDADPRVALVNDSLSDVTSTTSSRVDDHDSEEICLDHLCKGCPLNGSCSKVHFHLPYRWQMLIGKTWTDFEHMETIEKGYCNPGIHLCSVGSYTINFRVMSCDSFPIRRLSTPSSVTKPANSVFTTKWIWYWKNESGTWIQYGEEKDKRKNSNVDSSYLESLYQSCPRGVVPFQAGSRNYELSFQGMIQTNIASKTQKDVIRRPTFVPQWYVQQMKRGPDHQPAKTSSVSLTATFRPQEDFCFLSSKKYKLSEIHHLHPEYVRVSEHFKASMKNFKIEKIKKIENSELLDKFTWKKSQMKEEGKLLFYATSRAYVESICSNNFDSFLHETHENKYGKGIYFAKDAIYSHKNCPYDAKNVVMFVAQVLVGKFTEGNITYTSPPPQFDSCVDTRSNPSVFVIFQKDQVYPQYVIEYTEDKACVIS
UniProt Q7L4I2: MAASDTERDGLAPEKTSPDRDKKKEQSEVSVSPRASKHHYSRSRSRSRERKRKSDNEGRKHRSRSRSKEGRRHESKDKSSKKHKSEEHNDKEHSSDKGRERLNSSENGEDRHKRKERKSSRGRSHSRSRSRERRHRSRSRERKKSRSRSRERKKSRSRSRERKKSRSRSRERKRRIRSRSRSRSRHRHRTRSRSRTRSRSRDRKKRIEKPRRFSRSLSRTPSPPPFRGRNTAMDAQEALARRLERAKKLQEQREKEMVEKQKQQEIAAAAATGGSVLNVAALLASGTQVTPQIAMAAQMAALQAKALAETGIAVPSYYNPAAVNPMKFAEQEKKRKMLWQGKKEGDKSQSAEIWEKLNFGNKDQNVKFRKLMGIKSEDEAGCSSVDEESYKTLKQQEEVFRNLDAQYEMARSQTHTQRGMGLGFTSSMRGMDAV
UniProt Q7L1Q6: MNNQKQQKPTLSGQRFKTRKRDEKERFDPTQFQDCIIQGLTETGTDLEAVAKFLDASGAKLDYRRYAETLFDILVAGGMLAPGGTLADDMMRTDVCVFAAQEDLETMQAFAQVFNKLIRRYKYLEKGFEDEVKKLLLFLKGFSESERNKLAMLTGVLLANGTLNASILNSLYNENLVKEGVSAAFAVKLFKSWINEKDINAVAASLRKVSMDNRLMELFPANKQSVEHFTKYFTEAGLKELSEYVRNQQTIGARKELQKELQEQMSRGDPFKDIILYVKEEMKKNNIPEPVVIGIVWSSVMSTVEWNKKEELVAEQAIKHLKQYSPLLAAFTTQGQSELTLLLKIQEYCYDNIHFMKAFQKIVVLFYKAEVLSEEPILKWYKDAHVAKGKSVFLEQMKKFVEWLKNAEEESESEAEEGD
UniProt Q7L8L6: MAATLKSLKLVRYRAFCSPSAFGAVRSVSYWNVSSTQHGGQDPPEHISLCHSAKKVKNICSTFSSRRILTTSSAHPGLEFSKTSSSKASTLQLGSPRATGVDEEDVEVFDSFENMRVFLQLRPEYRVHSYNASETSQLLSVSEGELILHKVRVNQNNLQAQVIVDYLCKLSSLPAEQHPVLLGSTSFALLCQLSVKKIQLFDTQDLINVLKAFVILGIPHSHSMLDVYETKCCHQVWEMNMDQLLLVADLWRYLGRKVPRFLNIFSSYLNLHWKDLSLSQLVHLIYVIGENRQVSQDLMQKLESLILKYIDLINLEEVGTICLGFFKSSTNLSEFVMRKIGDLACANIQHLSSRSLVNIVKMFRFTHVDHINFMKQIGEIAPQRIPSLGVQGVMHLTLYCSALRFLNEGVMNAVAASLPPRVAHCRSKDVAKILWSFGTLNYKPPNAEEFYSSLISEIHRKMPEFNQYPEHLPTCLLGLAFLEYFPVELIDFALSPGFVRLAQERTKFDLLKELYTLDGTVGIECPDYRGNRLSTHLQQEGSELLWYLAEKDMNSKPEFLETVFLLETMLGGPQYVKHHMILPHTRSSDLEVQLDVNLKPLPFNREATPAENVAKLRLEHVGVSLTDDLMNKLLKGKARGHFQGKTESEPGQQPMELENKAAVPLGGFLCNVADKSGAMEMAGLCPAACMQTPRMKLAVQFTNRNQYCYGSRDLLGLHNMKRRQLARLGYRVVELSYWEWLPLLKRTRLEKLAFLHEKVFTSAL
UniProt Q7Z5K2: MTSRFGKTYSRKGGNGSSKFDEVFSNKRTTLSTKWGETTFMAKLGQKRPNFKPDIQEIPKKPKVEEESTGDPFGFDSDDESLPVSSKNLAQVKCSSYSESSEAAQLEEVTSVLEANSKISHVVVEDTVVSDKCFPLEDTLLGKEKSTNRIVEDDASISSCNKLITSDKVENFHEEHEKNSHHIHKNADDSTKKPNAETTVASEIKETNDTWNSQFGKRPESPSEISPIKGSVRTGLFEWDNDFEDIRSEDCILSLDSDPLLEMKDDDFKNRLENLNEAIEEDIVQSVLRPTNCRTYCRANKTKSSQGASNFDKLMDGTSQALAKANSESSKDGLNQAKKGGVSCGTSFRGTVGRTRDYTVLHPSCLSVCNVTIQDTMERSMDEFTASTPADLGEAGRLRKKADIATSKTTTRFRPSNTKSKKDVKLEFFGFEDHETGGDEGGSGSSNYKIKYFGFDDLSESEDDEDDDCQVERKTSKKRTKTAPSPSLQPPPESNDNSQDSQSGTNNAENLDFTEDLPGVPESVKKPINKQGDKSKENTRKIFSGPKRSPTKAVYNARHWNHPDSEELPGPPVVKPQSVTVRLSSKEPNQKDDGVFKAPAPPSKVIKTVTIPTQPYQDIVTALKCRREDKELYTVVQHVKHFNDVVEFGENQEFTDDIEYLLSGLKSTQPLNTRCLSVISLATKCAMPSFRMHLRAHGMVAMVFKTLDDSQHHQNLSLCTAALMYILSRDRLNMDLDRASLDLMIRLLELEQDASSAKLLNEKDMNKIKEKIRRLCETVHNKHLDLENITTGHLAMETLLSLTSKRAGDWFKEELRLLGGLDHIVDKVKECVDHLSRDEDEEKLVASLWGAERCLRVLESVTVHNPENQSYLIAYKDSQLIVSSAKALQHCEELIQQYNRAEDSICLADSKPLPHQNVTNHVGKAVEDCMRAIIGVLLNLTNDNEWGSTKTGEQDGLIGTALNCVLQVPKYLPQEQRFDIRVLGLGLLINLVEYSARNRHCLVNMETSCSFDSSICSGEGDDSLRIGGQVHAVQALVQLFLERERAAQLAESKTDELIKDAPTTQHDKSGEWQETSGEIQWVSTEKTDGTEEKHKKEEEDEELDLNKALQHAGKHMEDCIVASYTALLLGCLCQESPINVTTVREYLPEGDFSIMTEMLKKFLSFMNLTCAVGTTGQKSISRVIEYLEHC

Each target was assayed with COC(=O)/C=C/c1ccccc1 [methyl cinnamate] (assay: log2 ratio of iodoacetamide-alkyne labeling of the cysteine site, DMSO over compound (competition); higher = stronger covalent engagement of the cysteine by the compound, active = 1 or more). Details: 500 µM; treatment time 1 h; system: HEK293T cell lysate.
Procedure, shortened: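 HEK293T lysate (2 mg/mL) was incubated with electrophile (500 µM) or vehicle for 1 h at ambient temperature and then with iodoacetamide alkyne for 1 h. Labelled proteins were clicked to sCIP-TMT reagents, pooled, digested, enriched on streptavidin and measured by Orbitrap Eclipse LC-MS/MS with FAIMS, with FragPipe quantification. The per-cysteine log2 competition ratio is mean control-channel reporter intensity over mean compound-channel reporter intensity. Across three replicates with duplicate channels, cysteines quantified in only one replicate were excluded.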

log2 ratio of iodoacetamide-alkyne labeling, inactive:
CYFIP1 C1241 (UniProt Q7L576) 0.105, UniProt Q8IX01_C183 0.352, UniProt Q86YR5_C515 0.522, ANKLE2 C254 (UniProt Q86XL3) 0.137, NET1 C522 (UniProt Q7Z628) 0.0462, CRLF3 C95 (UniProt Q8IUI8) 0.0319, ELMOD2 C285 (UniProt Q8IZ81) 0.0321, IRF2BP1 C239 (UniProt Q8IU81) 0.102, ZC3HAV1 C150 (UniProt Q7Z2W4) 0.198, RSRC2 C382 (UniProt Q7L4I2) 0.331, KTN1 C736 (UniProt Q86UP2) 0.209, USP48 C658 (UniProt Q86UV5) -0.0324, UniProt Q7L1Q6_C35 -0.148, ZC3HC1 C429 (UniProt Q86WB0) 0.431, DHX30 C461 (UniProt Q7L2E3) 0.152, UniProt Q7L0Y3_C78 0.214, HUWE1 C790 (UniProt Q7Z6Z7) 0.484, FASTKD5 C525 (UniProt Q7L8L6) -0.0786, USP48 C80 (UniProt Q86UV5) -0.0926, HUWE1 C612 (UniProt Q7Z6Z7) 0.0935, UniProt Q8IVS2_C62 0.172, UniProt Q7Z5K2_C160 0.269
